Test results published in publication PMC3656112.
Results are given in words; binding and its absence hold for the method and conditions named. For some assays here: Binding seen in cells or lysates may run through a third protein. Some results given as binding are weak or reduced against the parent protein; the word gives no strength. Tags and fused reporters may be left off the sequences shown.

T1: Vap27-1, bait fusion from pBT3-STE-Vap27-1 (Arabidopsis thaliana) (UniProt Q8VZ95)
T1 sequence: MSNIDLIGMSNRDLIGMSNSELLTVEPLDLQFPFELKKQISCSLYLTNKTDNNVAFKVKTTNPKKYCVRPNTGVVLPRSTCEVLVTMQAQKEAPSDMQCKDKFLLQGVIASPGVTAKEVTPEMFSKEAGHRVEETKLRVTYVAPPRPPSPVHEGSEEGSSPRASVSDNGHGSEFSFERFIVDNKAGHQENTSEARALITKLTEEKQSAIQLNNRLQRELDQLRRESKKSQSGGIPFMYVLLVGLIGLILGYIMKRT

T2: Syp71-HA (Arabidopsis thaliana) (UniProt Q9SF29)
T2 sequence: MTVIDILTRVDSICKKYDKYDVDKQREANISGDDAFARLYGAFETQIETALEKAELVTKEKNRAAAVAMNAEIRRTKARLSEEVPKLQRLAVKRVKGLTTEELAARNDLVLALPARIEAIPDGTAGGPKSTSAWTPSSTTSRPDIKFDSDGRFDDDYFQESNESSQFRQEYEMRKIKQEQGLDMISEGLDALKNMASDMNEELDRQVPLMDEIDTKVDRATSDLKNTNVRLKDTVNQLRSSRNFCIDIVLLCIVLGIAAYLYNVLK


Key:
[1] = target: T1, Vap27-1, bait fusion from pBT3-STE-Vap27-1 (Arabidopsis thaliana); test: two-hybrid; DUAL membrane system (a variant of the yeast two-hybrid assay for membrane proteins); bait in pBT3-STE, prey in pPR3-N; yeast NMY51; growth on SD/-Leu/-Trp/-His/-Ade at 30°C for 2 days
[2] = target: T2, Syp71-HA (Arabidopsis thaliana); test: co-IP; two tagged proteins transiently coexpressed in N. benthamiana leaves for 48 h; cleared lysate in 50 mM Tris pH 7.5, 150 mM NaCl, 10% glycerol, 0.1% Nonidet P-40, 5 mM DTT; immunoprecipitated with HA antibodies and protein G Sepharose at 4°C; detected by His antibodies

binding [1]	binding [2]	Binder
binds		Syp71, prey fusion from pPR3-N-Syp71 (protein, UniProt Q9SF29 1-266) MTVIDILTRVDSICKKYDKYDVDKQREANISGDDAFARLYGAFETQIETALEKAELVTKEKNRAAAVAMNAEIRRTKARLSEEVPKLQRLAVKRVKGLTTEELAARNDLVLALPARIEAIPDGTAGGPKSTSAWTPSSTTSRPDIKFDSDGRFDDDYFQESNESSQFRQEYEMRKIKQEQGLDMISEGLDALKNMASDMNEELDRQVPLMDEIDTKVDRATSDLKNTNVRLKDTVNQLRSSRNFCIDIVLLCIVLGIAAYLYNVLK
	binds	Vap27-1-His (protein, UniProt Q8VZ95 1-256) MSNIDLIGMSNRDLIGMSNSELLTVEPLDLQFPFELKKQISCSLYLTNKTDNNVAFKVKTTNPKKYCVRPNTGVVLPRSTCEVLVTMQAQKEAPSDMQCKDKFLLQGVIASPGVTAKEVTPEMFSKEAGHRVEETKLRVTYVAPPRPPSPVHEGSEEGSSPRASVSDNGHGSEFSFERFIVDNKAGHQENTSEARALITKLTEEKQSAIQLNNRLQRELDQLRRESKKSQSGGIPFMYVLLVGLIGLILGYIMKRT
